Laboratory results taken from patent US11505575B2, “Cyclic polypeptides for PCSK9 inhibition” (Merck Sharp & Dohme LLC, priority 2018, dated 2022).
At least one structure is not confirmed: it was looked up by name or label, or the drawing left a doubt. *1 amine or outer side, *2 acyl side, *3 side chain or, on linkers, in order; H or OH if unused. Where a SMILES comes first, the peptide text is derived from it. Bridges are numbered along the chain shown (N, C = ends). [ ]: non-standard residue; d: D form. Trp(7-aza) = N[C@@H](Cc1c[nH]c2ncccc12)C(=O)O; mXylylene = c1cc(C[*:1])cc(C[*:2])c1; Tle = CC(C)(C)[C@H](N)C(=O)O; αMeV = CC(C)[C@](C)(N)C(=O)O; Aib = CC(C)(N)C(=O)O; Mpa = O=C(O)CCS

By UniProt entry, the sequences of proteins in these tests, tags left out. Residues count along the entry.
UniProt Q8NBP7, 31-152 partner limits assumed: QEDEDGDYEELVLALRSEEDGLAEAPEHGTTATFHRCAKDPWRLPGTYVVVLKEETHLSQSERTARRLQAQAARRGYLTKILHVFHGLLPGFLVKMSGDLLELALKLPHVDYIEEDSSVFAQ
UniProt Q8NBP7, 153-692: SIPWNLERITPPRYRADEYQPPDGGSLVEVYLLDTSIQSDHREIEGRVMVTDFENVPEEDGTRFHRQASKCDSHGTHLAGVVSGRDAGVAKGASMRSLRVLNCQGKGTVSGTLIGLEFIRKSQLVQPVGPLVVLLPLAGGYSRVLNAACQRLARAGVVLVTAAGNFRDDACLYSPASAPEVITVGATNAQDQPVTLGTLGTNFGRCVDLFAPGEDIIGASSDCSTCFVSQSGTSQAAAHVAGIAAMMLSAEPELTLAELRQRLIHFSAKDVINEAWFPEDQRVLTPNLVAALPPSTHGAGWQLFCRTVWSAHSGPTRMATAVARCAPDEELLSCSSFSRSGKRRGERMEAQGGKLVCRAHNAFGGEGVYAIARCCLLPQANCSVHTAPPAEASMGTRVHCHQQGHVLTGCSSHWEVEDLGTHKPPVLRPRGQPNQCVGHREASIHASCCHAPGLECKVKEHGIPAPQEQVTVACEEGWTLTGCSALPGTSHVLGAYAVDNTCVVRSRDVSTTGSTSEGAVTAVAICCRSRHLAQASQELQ

Target: human PCSK9 / human LDLR EGFa domain interaction (Homo sapiens, UniProt Q8NBP7)
Experiment: TR-FRET assay of inhibition of the PCSK9-LDLR protein-protein interaction
Type: binding
Conditions: 20 nM biotinylated human PCSK9 + 20 nM his-tagged human LDLR EGFa domain, 2 hours room temperature
Procedure: A time-resolved fluorescence resonance energy (TR-FRET) assay was used to measure inhibition of the PCSK9-LDLR protein-protein interaction. Briefly, 20 nM avitag-biotinylated human PCSK9 was incubated with 20 nM his-tagged human LDLR EGFa domain in the presence of 5 nM LANCE Ulight Streptavidin (Perkin Elmer) and 5 nM europium-Anti-6×His (Perkin Elmer) for 2 hours covered at room temperature in buffer containing 50 mM HEPES, 150 mM NaCl, 5 mM CaCl2, 0.01% BSA and 0.01% Surfactant P20. Compounds were tested in dose-response and concentrations giving half-maximal inhibition calculated using a 4-parameter fit equation.

SMILES: CC(C)[C@]1(C)NC(=O)[C@H](Cc2ccc(O)cc2)NC(=O)[C@@H]2CCC(=O)NCCCC[C@H](NC(=O)[C@H](Cc3ccc(O)cc3)NC(=O)[C@H](C(C)(C)C)NC(=O)CCSCc3cccc(c3)CSC[C@@H](C(N)=O)NC(=O)[C@H]([C@@H](C)O)NC1=O)C(=O)N[C@@H]([C@@H](C)O)C(=O)N[C@@H](Cc1c[nH]c3ncccc13)C(=O)NC(C)(C)C(=O)N2 [Compound 115] ([Mpa][Tle]YKT[Trp(7-aza)][Aib]EY[αMeV]TC-NH2; linker 1-12 via mXylylene; lactam 4-8)
- IC50: 100 to 1000 nM
